These are yes or no findings as the source states them, for the method shown. Some entries that bind do so weakly or less than the wild type.
Target: cynomolgus monkey BCMA on cells (HEK293T/cyno BCMA) (cynomolgus monkey)
Assay: FACS, HEK293T/cyno BCMA cells

B1: PR000943 (anti-BCMA HCAb, clone 1005P16A10) (antibody, human IgG1, V domains shown)
VH: EVQLVETGGGLIQPGGSLRLSCAASGFPVSSNYMSWVRQAPGKGLEWVSVIFSGGRTYYADSVKGRFTISRDNSKNTLYLQMNSLRAEDTAVYYCARRNWIDGRDAFDIWGQGTMVTVSS
Question: B1 was tested. Which binding did it give?
Answer: binds

B2: PR001046 (anti-BCMA HCAb, clone 1005P63B7) (antibody, human IgG1, V domains shown)
VH: EVQLVETGGGLIQPGGSLRLSCAASGFTVSDNYMTWVRQAPGKGLEWVSVIFSGGNTYYADSVKGRFTISRDNAKNTLYLQMNSLRAEDTALYYCARRNYDDTRGTDVFDIWGQGTMVTVSS
Question: How did the binding turn out when B2 was run?
Answer: binds

B3: PR001035 (anti-BCMA HCAb, clone 1005P36F3) (antibody, human IgG1, V domains shown)
VH: EVQLVETGGGLIQPGGSLRLSCAASGFTVSSNYMTWVRQAPGKGLEWVSVIFSGGSTYYADSVKGRFTISRDNSKNTLYLQMNSLRAEDTAVYYCARRIAVAGHDVFDIWGQGTMVTVSS
Question: With B3 as the binder, how does the binding read?
Answer: binds
